Patent US9605003B2, “Heterocyclic compounds and uses thereof” (Infinity Pharmaceuticals, Inc., priority 2011, dated 2017)
For some of these results: For at least one compound, name, drawing or mass did not settle the structure. Some results were stated once for a whole list of compounds, not compound by compound.

How the values were obtained:
[1] = test system: CCL3, CCL4, and CXCL13; details: CLL; cited from earlier work
[2] = test system: haematological malignancies; details: cited from earlier work
[3] = test system: rat Collagen Induced Arthritis Model; assay: Rat collagen induced arthritis model; type: in vivo
[4] = test system: anti-CD3 mediated phosphorylation of Akt-S473 and S6; assay: Kinase signaling in blood (phosflow), anti-CD3 stimulation; type: cell-based; details: anti-CD3 stimulated splenocytes or peripheral blood mononuclear cells

CC[C@H](Nc1ncnc2[nH]cnc12)c1nc2cccc(F)c2c(=O)n1-c1ccccc1 [CAL-101]
expression of stromal and T-cell derived factors including CCL3, CCL4, and CXCL13 [1]: suppresses | lymph node reduction and lymphocyte redistribution ([2]; CLL patients): induces rapid lymph node reduction and redistribution of lymphocytes into the circulation | activity in CLL ([2]; phase 1 trial, patients with poor prognostic characteristics): showed activity in CLL | activity in mantle cell lymphoma and refractory non Hodgkin's lymphoma ([2]; single agent): active

C[C@H](Nc1ncnc2scnc12)c1cc2cccc(-c3cnn(C)c3)c2c(=O)n1-c1ccccc1 [Compound 5]
EC50 in rat Collagen Induced Arthritis Model [3]: less than 50 mg/kg

COc1ncc(-c2cccc3cc([C@H](C)Nc4ncnc5scnc45)n(-c4ccccc4)c(=O)c23)cn1 [Compound 38]
EC50 in rat Collagen Induced Arthritis Model [3]: less than 50 mg/kg

CC(C)n1c([C@H](C)Nc2ncnc3scnc23)cc2cccc(-c3ccc(=O)n(C)c3)c2c1=O [Compound 103]
EC50 in rat Collagen Induced Arthritis Model [3]: less than 50 mg/kg

COc1ncc(-c2cccc3cc([C@H](C)Nc4ncnc5scnc45)n(-c4ccon4)c(=O)c23)cn1 [Compound 106]
EC50 in rat Collagen Induced Arthritis Model [3]: less than 50 mg/kg

CO[C@H]1C[C@@H]2CC[C@@H](C)[C@@](O)(O2)C(=O)C(=O)N2CCCC[C@H]2C(=O)O[C@H]([C@H](C)C[C@@H]2CC[C@@H](O)[C@H](OC)C2)CC(=O)[C@H](C)/C=C(\C)[C@@H](O)[C@@H](OC)C(=O)[C@H](C)C[C@H](C)/C=C/C=C/C=C/1C [rapamycin]
phosphorylation of Akt-S473 [4]: enhances Akt phosphorylation | phosphorylation of S6 [4]: inhibits S6 phosphorylation
